Construct, isoform or probe ends are uncertain for at least one entry. No signal at the amounts used counts as a negative. For some of these results: At least one verdict was read from the data and is not stated in words by the source.
Legend:
GST-DCL3 F1 = GST-DCL3 F1 (UniProt Q9LXW7); assay: MST, EMSA; conditions: EMSA: as in Duan et al. 2012, 1 nmol protein, biotin-labelled RNA; recombinant protein; protein details: GST; label: biotin 3' end (EMSA), unlabeled in MST
GST-DCL3 F2 = GST-DCL3 F2 (UniProt Q9LXW7); assay: MST, EMSA; conditions: EMSA: as in Duan et al. 2012, 1 nmol protein, biotin-labelled RNA; recombinant protein; protein details: GST; label: biotin 3' end (EMSA), unlabeled in MST
GST-DCL3 F3 = GST-DCL3 F3 (UniProt Q9LXW7); assay: MST, EMSA; conditions: EMSA: as in Duan et al. 2012, 1 nmol protein, biotin-labelled RNA; recombinant protein; protein details: GST; label: biotin 3' end (EMSA), unlabeled in MST
GST-DCL3 F4 = GST-DCL3 F4 (UniProt Q9LXW7); assay: MST, EMSA; conditions: EMSA: as in Duan et al. 2012, 1 nmol protein, biotin-labelled RNA; recombinant protein; protein details: GST; label: biotin 3' end (EMSA), unlabeled in MST
GST = GST (UniProt P08515); assay: EMSA; conditions: EMSA: as in Duan et al. 2012, 1 nmol protein, biotin-labelled RNA; recombinant protein; label: biotin 3' end (EMSA), unlabeled in MST

By UniProt entry, the sequences of proteins in these tests, tags left out. Where a name states a change or a piece, a line headed by the entry shows the natural chain unless it says otherwise.
UniProt Q9LXW7: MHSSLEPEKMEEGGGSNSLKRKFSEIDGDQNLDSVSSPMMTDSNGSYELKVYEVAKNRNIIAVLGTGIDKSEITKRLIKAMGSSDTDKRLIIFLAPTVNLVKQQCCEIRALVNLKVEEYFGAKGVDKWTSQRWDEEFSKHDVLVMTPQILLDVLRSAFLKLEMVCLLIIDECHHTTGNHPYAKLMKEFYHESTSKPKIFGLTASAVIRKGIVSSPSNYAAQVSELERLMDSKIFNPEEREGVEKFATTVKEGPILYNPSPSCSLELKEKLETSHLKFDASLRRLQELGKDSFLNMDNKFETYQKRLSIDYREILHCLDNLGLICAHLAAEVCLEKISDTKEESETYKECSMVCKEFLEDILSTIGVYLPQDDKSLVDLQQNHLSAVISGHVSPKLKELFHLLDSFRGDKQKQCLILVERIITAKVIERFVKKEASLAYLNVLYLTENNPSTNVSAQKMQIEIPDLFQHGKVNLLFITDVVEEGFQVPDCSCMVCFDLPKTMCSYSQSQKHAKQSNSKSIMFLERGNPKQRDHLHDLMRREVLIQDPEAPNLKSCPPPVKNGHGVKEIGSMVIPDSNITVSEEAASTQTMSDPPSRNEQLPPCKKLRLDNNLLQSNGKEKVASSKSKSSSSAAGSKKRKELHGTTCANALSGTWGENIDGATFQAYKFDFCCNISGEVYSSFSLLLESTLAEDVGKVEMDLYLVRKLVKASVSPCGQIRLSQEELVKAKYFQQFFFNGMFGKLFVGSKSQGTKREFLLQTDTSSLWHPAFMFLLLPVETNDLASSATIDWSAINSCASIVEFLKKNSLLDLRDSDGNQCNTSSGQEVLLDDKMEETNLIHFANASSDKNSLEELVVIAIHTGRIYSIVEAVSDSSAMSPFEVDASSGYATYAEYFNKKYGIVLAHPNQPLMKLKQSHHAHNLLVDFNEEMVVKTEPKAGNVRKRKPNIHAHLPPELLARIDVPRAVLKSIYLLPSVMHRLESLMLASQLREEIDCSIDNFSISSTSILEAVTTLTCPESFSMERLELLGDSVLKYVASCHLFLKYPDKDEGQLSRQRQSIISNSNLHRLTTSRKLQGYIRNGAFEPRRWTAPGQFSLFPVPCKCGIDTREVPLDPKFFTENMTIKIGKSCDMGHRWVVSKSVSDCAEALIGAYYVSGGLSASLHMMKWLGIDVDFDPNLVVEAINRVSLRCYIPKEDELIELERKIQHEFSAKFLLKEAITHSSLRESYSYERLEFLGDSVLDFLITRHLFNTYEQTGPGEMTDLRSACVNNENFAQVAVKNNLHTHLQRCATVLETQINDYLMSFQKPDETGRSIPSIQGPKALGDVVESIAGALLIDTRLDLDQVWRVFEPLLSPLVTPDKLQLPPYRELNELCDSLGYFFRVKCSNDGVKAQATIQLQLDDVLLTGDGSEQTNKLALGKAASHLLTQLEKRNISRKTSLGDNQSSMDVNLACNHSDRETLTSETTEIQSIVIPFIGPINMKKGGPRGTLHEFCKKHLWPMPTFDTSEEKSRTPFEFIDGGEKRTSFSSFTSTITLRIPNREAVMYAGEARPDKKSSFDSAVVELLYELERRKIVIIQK
UniProt P08515, whole entry: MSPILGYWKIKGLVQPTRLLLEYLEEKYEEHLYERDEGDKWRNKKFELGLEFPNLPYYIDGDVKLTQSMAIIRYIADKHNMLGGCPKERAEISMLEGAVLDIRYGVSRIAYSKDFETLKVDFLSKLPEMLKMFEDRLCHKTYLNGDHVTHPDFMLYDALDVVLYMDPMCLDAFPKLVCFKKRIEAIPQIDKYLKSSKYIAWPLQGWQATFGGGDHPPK

Measured: binding result

UACAAGACACGUGCUGAAGUCAAGUUUGAGGGAACACCCUCGUCAACAGGAUCG / AUCCUGUUGACGAGGGUGUCUCCCUCAAACUUGACUUCAGCACGUGUCUUGUAGU [55-bp ds-sRNA]
not listed: GST
no binding: all other assays above

UCAACAGGAUCGAGCUUAAGG / UUAAGCUCGAUCCUGUUGACG [21-bp ds-sRNA (ds siRGFP)]
no binding: all assays above

UGAAUUUCUGGUAUGGGUCCCGCC / CGGGACCCAUACCAGAAAUUCAUC [24-bp ds-sRNA (dsAtSN1)]
not listed: GST
no binding: all other assays above

Reference: article PMC10987413
